Record: PubChem BioAssay AID686938 (Drosophila RNAi Screening Center, 2013)
In all, the deposit lists about 23,000 reagents; shown is a random part of those with a known target gene and a result. In the full data, 75 (0.33%) were called active. 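Raw plate signals without normalisation; calls rest on plate z-scores that were not deposited; ratio present for only 364 wells.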 Entries without a mark were called inactive. Reagent sequences are not shown. The record does not give: the dose of the treatment.

- Assay: 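Knock-downs reducing store-operated calcium influx in Drosophila cells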 (primary screen)
- Cell system: Drosophila S2R+ cells
- Reagent: long dsRNA against Drosophila genes, about 0.25 µg dsRNA per well, roughly 10,000 cells
- Time to read-out: 5 days of knock-down before the calcium assay
- Treatment: thapsigargin (SERCA pump blocker) to empty calcium stores; entry signal taken 4 min after adding it
- Read-out: 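Duplicate raw fluo-4 intensities per well from a plate reader, at rest and four minutes after thapsigargin emptied calcium stores; entry-to-rest ratio filled for only some wells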
- Direction: calcium entry signal: higher = stronger calcium signal after store depletion; entry to resting ratio: higher = more calcium entry relative to resting level; resting calcium signal: higher = higher resting calcium signal
- Call rule: 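Hit if the duplicate-averaged plate z-score for entry over resting signal is under −3; wells with weak total dye signal (Fmax z < −2) or more than 5 off-targets removed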
- Meaning of the calls: active = strongly reduced calcium entry; inactive = no strong reduction

target gene | dsRNA | calcium entry signal, replicate 1 (fluorescence units) | calcium entry signal, replicate 2 (fluorescence units) | entry to resting ratio | resting calcium signal, replicate 1 (fluorescence units) | resting calcium signal, replicate 2 (fluorescence units)
CG13244 | DRSC21642 | 2.71e7 | 3.12e7 | – | 1.70e7 | 1.50e7
CG14106 | DRSC10109 | 3.27e7 | 3.66e7 | – | 1.84e7 | 1.70e7
Jon66Ci | DRSC10772 | 2.41e7 | 3.47e7 | – | 1.14e7 | 1.54e7
vkg | DRSC03632 | 3.73e7 | 4.01e7 | – | 1.81e7 | 1.93e7
Inx5 | DRSC20051 | 5.09e7 | 4.85e7 | – | 2.37e7 | 1.97e7
CG5863 | DRSC15898 | 3.71e7 | 6.09e7 | – | 1.77e7 | 6.86e7
Capa | DRSC15058 | 3.09e7 | 3.62e7 | – | 1.54e7 | 1.76e7
KFase | DRSC03258 | 2.22e7 | 2.18e7 | – | 1.09e7 | 1.05e7
Cdk5 | DRSC07359 | 3.15e7 | 2.47e7 | – | 1.37e7 | 1.21e7
Fmo-2 | DRSC04983 | 5.28e7 | – | – | 2.55e7 | –
CG15408 | DRSC00423 | 2.55e7 | 2.55e7 | – | 1.29e7 | 1.27e7
CR18275 | DRSC18151 | 2.23e7 | 2.43e7 | 1.8 | 1.23e7 | 1.16e7

Next part, starting with the last 3 of the part before.
target gene | dsRNA | calcium entry signal, replicate 1 (fluorescence units) | calcium entry signal, replicate 2 (fluorescence units) | entry to resting ratio | resting calcium signal, replicate 1 (fluorescence units) | resting calcium signal, replicate 2 (fluorescence units)
Fmo-2 | DRSC04983 | 5.28e7 | – | – | 2.55e7 | –
CG15408 | DRSC00423 | 2.55e7 | 2.55e7 | – | 1.29e7 | 1.27e7
CR18275 | DRSC18151 | 2.23e7 | 2.43e7 | 1.8 | 1.23e7 | 1.16e7
CG14115 | DRSC10118 | 2.85e7 | 4.21e7 | – | 1.45e7 | 1.83e7
Vha16-5 | DRSC02986 | 2.22e7 | 2.94e7 | – | 1.07e7 | 1.28e7
emp | DRSC04019 | 2.38e7 | 3.38e7 | – | 1.23e7 | 1.41e7
emp | DRSC04683 | 3.16e7 | – | – | 1.63e7 | –
Trxr1 | DRSC18668 | 2.23e7 | 2.41e7 | – | 1.21e7 | 1.18e7
Trxr1 | DRSC22293 | 3.25e7 | 4.60e7 | – | 1.64e7 | 2.43e7
CG40198 | DRSC21068 | 6.71e7 | 4.72e7 | – | 2.78e7 | 1.93e7
dysf | DRSC14529 | 3.61e7 | 4.98e7 | – | 1.92e7 | 2.06e7
dysf | DRSC14895 | 3.39e7 | 5.26e7 | – | 1.95e7 | 2.30e7
dysf | DRSC14896 | 2.99e7 | 4.63e7 | – | 1.63e7 | 2.04e7
dysf | DRSC14897 | 3.16e7 | 4.13e7 | – | 1.93e7 | 2.15e7
lncRNA:iab4 | DRSC22331 | 3.83e7 | 7.19e7 | – | 1.86e7 | 2.90e7
